Protein sequences, listed by entry. Tags and fused reporters are not part of them. Residues count along the entry.
UniProt P46098, 24-478 limits assumed: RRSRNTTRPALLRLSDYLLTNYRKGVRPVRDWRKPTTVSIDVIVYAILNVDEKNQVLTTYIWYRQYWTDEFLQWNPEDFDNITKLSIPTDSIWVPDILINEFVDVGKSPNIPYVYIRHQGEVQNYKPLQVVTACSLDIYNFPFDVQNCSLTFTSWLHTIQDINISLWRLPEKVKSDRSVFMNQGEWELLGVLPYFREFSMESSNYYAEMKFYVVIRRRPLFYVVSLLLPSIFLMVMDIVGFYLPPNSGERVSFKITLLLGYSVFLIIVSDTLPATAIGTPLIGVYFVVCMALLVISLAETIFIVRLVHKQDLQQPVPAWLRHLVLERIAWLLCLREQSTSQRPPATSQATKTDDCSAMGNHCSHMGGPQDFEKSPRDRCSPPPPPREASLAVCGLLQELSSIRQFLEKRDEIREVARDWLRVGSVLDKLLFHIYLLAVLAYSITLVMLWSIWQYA
UniProt O95264, 22-441 partner limits assumed: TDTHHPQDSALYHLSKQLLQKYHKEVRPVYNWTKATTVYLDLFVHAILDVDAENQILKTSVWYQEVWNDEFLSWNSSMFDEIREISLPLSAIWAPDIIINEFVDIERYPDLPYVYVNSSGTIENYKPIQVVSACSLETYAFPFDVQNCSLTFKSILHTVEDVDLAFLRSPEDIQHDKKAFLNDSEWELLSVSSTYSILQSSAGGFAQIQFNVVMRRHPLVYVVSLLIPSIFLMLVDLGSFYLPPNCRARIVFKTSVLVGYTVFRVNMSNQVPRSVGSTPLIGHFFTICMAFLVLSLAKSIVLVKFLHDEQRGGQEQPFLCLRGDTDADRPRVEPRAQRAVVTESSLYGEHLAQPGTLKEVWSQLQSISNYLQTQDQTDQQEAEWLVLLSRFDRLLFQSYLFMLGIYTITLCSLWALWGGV

According to article PMC3778450, “Agonists and antagonists induce different palonosetron dissociation rates in 5-HT3A and 5-HT3AB receptors^” (Neuropharmacology, 2013):

How the values were obtained:
5-HT3A receptors = 5-HT3A receptors (Homo sapiens, UniProt P46098); test: Radioligand association and dissociation kinetics, HEK293 membranes; assay type: binding; conditions: tested as the radiolabelled form
5-HT3AB receptors = 5-HT3AB receptors (Homo sapiens, UniProt P46098); test: as above; assay type: binding; conditions: tested as the radiolabelled form

O=C1c2cccc3c2[C@H](CCC3)CN1[C@@H]1CN2CCC1CC2
time to complete association (maximal levels) (5-HT3A receptors): 30 min and ≤ 30 min | time to complete association (maximal levels) (5-HT3AB receptors): 30 min and ≤ 30 min

A number of entries come with more than one value. The other results are left out here. An entry can have further records. The records of an entry do not match, cause unknown; dose, time, organism, isomer or construct need not be as stated for each record.
